The results in this text go back to article PMC3738525.

Chains of the proteins cited; added tags and fusions are not shown.
UniProt P23528: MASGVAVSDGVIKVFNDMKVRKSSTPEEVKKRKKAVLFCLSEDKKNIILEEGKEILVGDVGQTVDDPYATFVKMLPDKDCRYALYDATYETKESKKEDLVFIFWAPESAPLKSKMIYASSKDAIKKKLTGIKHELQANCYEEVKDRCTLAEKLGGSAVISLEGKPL
UniProt P63104: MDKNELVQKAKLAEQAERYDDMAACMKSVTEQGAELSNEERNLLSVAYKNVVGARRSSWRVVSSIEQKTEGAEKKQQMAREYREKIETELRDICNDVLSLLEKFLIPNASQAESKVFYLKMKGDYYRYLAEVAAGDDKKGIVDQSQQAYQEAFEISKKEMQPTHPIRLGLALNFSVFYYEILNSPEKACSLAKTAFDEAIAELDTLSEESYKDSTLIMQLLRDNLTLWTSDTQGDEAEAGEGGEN

This test concerns the target endogenous cofilin (human (endogenous in platelets and HUVEC)) (UniProt P23528). Briefly: affinity purification with mass spectrometry; endothelial cells cross-linked with 1% formaldehyde, RIPA lysate, anti-cofilin antibody and protein A magnetic beads; control beads alone; trypsin digest, LC-MS/MS.

No constants are given. Whether binding was seen depends on the method and setting. Binding seen in cells or lysates may run through a third protein. Here binding means that the protein was enriched with, or labelled near, the bait; the list need not be complete.

On to 14-3-3ζ (from UniProt P63104 1-245), for which the binding entry was “binds”.
